# Primary screen of a compound library

Measurements from “University of Dundee, Small-Polar-MMV Screening Library” (2021), ChEMBL document CHEMBL3988442.

The filed quantity is “Percent Effect” (%).
How 0% and 100% were set is not recorded. Most values in the screen are low, and negative values occur.
This is an unselected part of the compounds tested.
Two or more numbers in one place are separate tests of the same structure; such repeats can differ widely.

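Viability assay of Plasmodium falciparum sporozoites; the read-out is not stated. The concentration is filed as 10 mM, unlikely as a test dose, so the dose is not known. Direction is inferred from retests: higher values go with lower viability. Strong results were mostly tested again. Size under these conditions: about 34,000 compounds, about 280 of them at 50% or above in at least one test.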

- COc1cc(C(=O)NS(=O)(=O)c2cccc(C#N)c2)cc(Cl)c1OC : 1.587%
- Cc1c(C(=O)N2CCC2(C)C)nnn1-c1cccc2cnccc12 : -13.94%
- CN(C)CCN1C(=O)CCC12CCCN(C(=O)N(C)C)CC2.O=C(O)C(F)(F)F (centres unmarked) : -0.7881%
- c1ccc(-n2cc(CNC3CCc4ncnn4C3)nn2)cc1 (centres unmarked) : 6.154%
- Cc1cc(C)n(CC2CN(CC(=O)NC(C3CC3)C3CC3)CCO2)n1 (centres unmarked) : 3.839%
- [H][C@]12CC[C@]([H])(CN(c3cnccn3)C1)N(C(=O)c1c(C)noc1C)C2 : 0.1754%
- COc1cccc(CC2CN(C3CCN(C(C)=O)CC3)CCO2)c1 (centres unmarked) : -0.8724%
- [H][C@@]12CN(C(=O)C3CC=CC3)C[C@@]1([H])N(Cc1cccnc1)C(=O)CO2 : -1.229%
- Cn1cc(CC2CCN(C(=O)NCCCc3ccc(O)cc3)C2)cn1 (centres unmarked) : -2.596%
- CCNc1cc2c(nn1)CCN(C(=O)c1ccc(C(N)=O)cc1)C2 : 4.8%
- CNc1cc(C)nc(C2CN(Cc3cc[nH]n3)CCO2)c1 (centres unmarked) : -26.18%
- CC(C)CNC(=O)C1=NOC2(CCN(Cc3cccc(C#N)c3)C2)C1 (centres unmarked) : 14.21%
- Cc1cc2c(=O)n3c(nc2s1)CCN(C(=O)c1scnc1C)CC3 : -8.649%
- O=C(c1[nH]c2ccc(Cl)cc2c1Cl)N1CCC2(CC1)OCCO2 : -10.51%
- O=C(COCc1ccccc1)N1CCC(OCc2cccnc2)CC1 : 3.638%
- COc1ccc(CC(=O)NC(C)c2nc3cccnc3n2C(C)C)cc1 (centres unmarked) : 5.453%
- CN(C)S(=O)(=O)N1CCCC1c1cccc(-n2ccnc2)n1 (centres unmarked) : -13.56%
- CCS(=O)(=O)c1ncc(CN(C)Cc2ccc(C)o2)n1CCOC : 5%
- Cc1noc(CCCC(=O)NC(C)c2cn(-c3ccccc3)nn2)n1 (centres unmarked) : 4.122%
- CCn1ncc2c1CCCC2NCc1ccc(OC)cc1OC (centres unmarked) : -0.7558%
- O=C(O)C(F)(F)F.O=C(O)C(F)(F)F.[H][C@@]12C[C@@H](C(=O)NC)N(C(C)=O)[C@]1([H])CN(Cc1ccc(C)s1)C2 : 3.249%
- COCCN1CCC2(CC1)CC(N1CCOCC1)c1cc(C)ccc12.O=C(O)C(F)(F)F.O=C(O)C(F)(F)F (centres unmarked) : 16.61%
- O=C(NCc1nnc2n1CCCC2)N1CCc2ccccc2C1 : 11.46%
- Cc1nc(CN2CCCCC2Cn2cncn2)nc2ccccc12 (centres unmarked) : 16.21% & 17.34% & 16.74%
- Cn1cccc1C(=O)N1CCC2(CCN(C(=O)c3cccnc3)C2)CC1.O=C(O)C(F)(F)F : 13.53%
- Cc1cnn(CCC(=O)N2CCCC(c3nc(C)c(C)s3)C2)c1 (centres unmarked) : 1.159%
- CC(C(=O)N1CCC(Nc2cccnn2)CC1)n1cccn1 (centres unmarked) : 6.48%
- COc1cccc(N2CCN(C(=O)c3ccc(=O)n(C)c3)CC2)c1 : -1.665%
- Cc1cccc(C(=O)NCc2ccc(N3CCCCC3)nc2)n1 : 1.671%
- CNC(=O)C1Cc2ccccc2CN1CCCc1ccccc1 (centres unmarked) : -18.51%
- O=C(NCC1(O)COCCN(Cc2cccc(O)c2)C1)c1ccccn1 (centres unmarked) : 3.005%
- Cc1cc(CN2CCN(c3ccc4nncn4n3)C(C)C2)no1 (centres unmarked) : 4.415%
- CC(=O)c1ccc(N2CCCC(CO)(Cc3ccccc3C)C2)nc1 (centres unmarked) : -12.19%
- CNS(=O)(=O)c1cccc(C(C)NCc2ccsc2)c1 (centres unmarked) : -4.281%
- [H][C@@]12COC[C@]1(COCC(=O)N(C)C)CN(Cc1ccoc1)C2 : 0.9227%
- CN(C)c1ncccc1CNC(=O)NCc1cccs1 : -4.944%
- CCCN(CC)C(=O)c1cc2c(c3ccccc3n2C)n1C(=O)N(C)C : 3.915%
- Cc1cnc(C2(C)CCN(Cc3csc(C)n3)CC2)s1 : -1.776%
- CC(C)(C)n1ncc2c1NC(=O)CC2c1ccc(OCC(N)=O)cc1 (centres unmarked) : -6.133%
- Cc1cnn(CCNCc2csc(-c3ccsc3)n2)c1 : 6.653%
- O=C(O)C(F)(F)F.O=C(O)C(F)(F)F.[H][C@]12CC(=O)N(Cc3cccc(C)n3)[C@@]1([H])CCN2CC1CC1 : 0.9206%
- CN(C)C(=O)Cc1nc(CN2CCOC(Cn3cccn3)C2)cs1 (centres unmarked) : -8.455%

The first 3 entries again:

| compound | Percent Effect |
|---|---|
| `COc1cc(C(=O)NS(=O)(=O)c2cccc(C#N)c2)cc(Cl)c1OC` | 1.587% |
| `Cc1c(C(=O)N2CCC2(C)C)nnn1-c1cccc2cnccc12` | -13.94% |
| `CN(C)CCN1C(=O)CCC12CCCN(C(=O)N(C)C)CC2.O=C(O)C(F)(F)F` (centres unmarked) | -0.7881% |